Data on three compounds can be found in PubChem BioAssay AID2810 (NMMLSC, 2010).

The list shows a part of the results.

The experiment can be described thus: modulators of CD8 T cell-vesicle binding, confirmation, cherry-picked primary hits, two concentrations (AID 2810).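 On all read-outs here: lower values mean blocking of vesicle binding.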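 On percent response (vesicle binding): ratio of mean FL2 vesicle stain of CD8+ cells to that row's control.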 The settings on record: 2C CD8+ T cell-vesicle binding, flow cytometry; for double positive events: CD8+/vesicle+ events. (In general: Flow cytometry measures light scatter and fluorescence of single cells or particles in a stream.)
Setting [1] is: at 15.4 µM, stronger effect = lower value.

Where the note is “at 7.7 µM”, `C[N+]1=C2C=CC=CC=C2SC12C([N+](=O)[O-])=CC([N+](=O)[O-])=C[C-]2[N+](=O)[O-]` (centres undefined) displayed a double positive events of 32.9% and a percent response (vesicle binding) of 751%. This compound also showed a double positive events under setting [1] of 28.1%.
As for `CCOC(=O)c1ccc(NP(C)(=O)Oc2ccccc2)cc1` (centres undefined), for the setting “at 7.7 µM”, the double positive events turned out to be 20.8% and the percent response (vesicle binding) amounted to 296%. The compound also registered a double positive events under setting [1] of 14.3%.
On to `COc1ccccc1OP(C)(=O)Nc1c(C)cccc1C` (centres undefined), for which, for the setting “at 7.7 µM”, the double positive events was 24.3% and the percent response (vesicle binding) turned out to be 385%. Under setting [1], the double positive events turned out to be 12.3%.
